Experimental findings from patent US20230270104A1, “USE OF ERYTHRITOL COMPOSITIONS AS MAMMAL-SAFE INSECTICIDES” (Drexel University, priority 2020, published 2023) are described below.

Series [1] concerns R. flavipes workers. Description: Termite choice test between erythritol-treated and control filter paper disks. The following applies: 1.25 M versus 0 M erythritol filter paper disks, 1 h. It is filed as in vivo, Reticulitermes flavipes.
The subject of series [2] is R. flavipes workers. Nature of the series: Termite consumption of erythritol-treated filter paper assessed with blue dye. In kind it is in vivo, Reticulitermes flavipes.

Molecules are shown by their SMILES. “Also recorded” adds a separate entry of the source.

On to `OC[C@@H](O)[C@@H](O)CO` [erythritol, (2R,3S)-butane-1,2,3,4-tetraol], for which the “relative preference / avoidance of erythritol-treated disks” value in the series with R. flavipes workers [1] is reported as “did not differ in their relative preference; also recorded: No difference in termite attendance; also recorded: do not display avoidance; also recorded: did not display avoidance”. The “consumption of erythritol-treated paper” value with R. flavipes workers [2] (all treatment concentrations) is on record as “consumed by termites at all treatment concentrations; also recorded: consumed erythritol-treated paper at all concentrations”. The “dead treatment termites with blue dye visible in their guts” value with R. flavipes workers [2] (blue-stained filter papers treated with 0.25-1.5 M erythritol, 8 d) stood at 81%.
